Source: PubChem BioAssay AID1259327 (Drosophila RNAi Screening Center, 2017)

Test: 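Baseline ATP after transmembrane-protein gene knock-down with water vehicle only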
System: Drosophila S2R+ cells
Knock-down reagent: long dsRNA against Drosophila genes
Time to read-out: 5 days (water added on day 4, read one day later)
Challenge: water added as vehicle, no metal, one day before read-out
Detection: 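Total ATP measured by luciferase light, scaled to plate mean, duplicates averaged, then z-scored across plates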
Direction: ATP z-score: higher = more total ATP than typical wells; ATP luminescence: higher = more total ATP
Call rule: 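Called active when the ATP z-score exceeds 1.5 or falls below -1.5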
Calls: active = hit: ATP up or down; inactive = no clear ATP change
Here is one part, drawn at random, of about 3,100 deposited reagents. 378 of them (12%) were called active. 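Hits include both directions; z-score sign shows ATP rise or fall; raw luminescence values are not plate-normalised.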 No sequences are given here. Not given: the amount of reagent.

no.	Target gene	amplicon	ATP z-score, duplicate mean	ATP luminescence, replicate 1 (RLU)	ATP luminescence, replicate 2 (RLU)	Call
1	GluRIIE (Glutamate receptor IIE)	DRSC13431	-0.334	2.77e5	7.45e5	inactive
2	GluRIIE (Glutamate receptor IIE)	DRSC39623	-1.46	3.48e5	3.86e5	inactive
3	CG10505	DRSC04075	-0.234	7.38e5	6.65e5	inactive
4	CG10505	DRSC39815	1.2	4.51e5	6.83e5	inactive
5	CG45049	DRSC16163	0.199	3.03e5	7.98e5	inactive
6	CG45049	DRSC23175	0.564	6.94e5	5.60e5	inactive
7	Mayo	DRSC14300	-1.25	6.11e5	7.19e5	inactive
8	Zip88E (Zinc/iron regulated transporter-related protein 88E)	DRSC15562	-0.151	2.50e5	8.53e5	inactive
9	Zip88E (Zinc/iron regulated transporter-related protein 88E)	DRSC25826	-0.479	7.88e5	7.93e5	inactive
10	CG32432	DRSC11744	-0.514	8.78e5	7.81e5	inactive
11	CG10165	DRSC02017	0.688	4.59e5	6.00e5	inactive
12	fz3 (frizzled 3)	DRSC18779	-0.936	5.05e5	7.33e5	inactive
13	fz3 (frizzled 3)	DRSC29682	0.417	9.34e5	8.17e5	inactive
14	robo3 (roundabout 3)	DRSC00374	-0.135	7.09e5	6.75e5	inactive
15	robo3 (roundabout 3)	DRSC00684	0.889	7.97e5	7.98e5	inactive
16	Tim17b2 (Translocase inner membrane 17)	DRSC28544	-0.294	8.05e5	7.71e5	inactive
17	MsR2 (Myosuppressin receptor 2)	DRSC08337	0.41	6.33e5	6.80e5	inactive
18	MsR2 (Myosuppressin receptor 2)	DRSC22440	-0.4	8.31e5	7.70e5	inactive
19	MsR2 (Myosuppressin receptor 2)	DRSC26863	-0.366	8.72e5	9.39e5	inactive
20	CG8916	DRSC20120	0.455	8.08e5	8.29e5	inactive
21	CG8916	DRSC39685	-0.245	4.46e5	4.51e5	inactive
22	CG43795	DRSC04192	-0.307	7.07e5	6.80e5	inactive
23	CG43795	DRSC04310	-0.911	6.47e5	6.12e5	inactive
24	CG43795	DRSC26752	2.05	1.02e6	8.74e5	active
25	Or67a (Odorant receptor 67a)	DRSC11240	0.927	1.14e6	9.00e5	inactive
26	CG15553	DRSC15091	-0.697	6.54e5	6.38e5	inactive
27	CG15553	DRSC39697	-0.901	4.34e5	3.73e5	inactive
28	CG5853	DRSC01103	1.11	8.64e5	8.61e5	inactive
29	CG5853	DRSC02906	-1.14	4.13e5	3.84e5	inactive

3 successive entries from above, for reference:
no.	Target gene	amplicon	ATP z-score, duplicate mean	ATP luminescence, replicate 1 (RLU)	ATP luminescence, replicate 2 (RLU)	Call
1	GluRIIE (Glutamate receptor IIE)	DRSC13431	-0.334	2.77e5	7.45e5	inactive
2	GluRIIE (Glutamate receptor IIE)	DRSC39623	-1.46	3.48e5	3.86e5	inactive
3	CG10505	DRSC04075	-0.234	7.38e5	6.65e5	inactive
